Some of the results follow.
Experiments:
Experiment in all cases: glycan array binding signal (z-score within array); higher = stronger binding
Settings in all cases: glycan notation: IUPAC condensed, linker removed
[1] = molecular target: Fuc(a1-2)[Gal(a1-3)]Gal(b1-4)GlcNAc(b1-2)Man(a1-3)[Fuc(a1-2)[Gal(a1-3)]Gal(b1-4)GlcNAc(b1-2)Man(a1-6)]Man(b1-4)GlcNAc(b1-4)GlcNAc
Outline: (§1)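 Columns mapping to the same glycan were averaged after glycan names were converted to IUPAC-condensed notation. The data come from 3228 arrays in the Consortium for Functional Glycomics database, limited to those with an available protein sequence. Binding is reported as a within-array Z-score averaged across arrays of one protein sequence and across linkers.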

[2] = molecular target: Fuc(a1-2)[Gal(a1-3)]Gal(b1-4)GlcNAc(b1-2)Man(a1-3)[Fuc(a1-2)[Gal(a1-3)]Gal(b1-4)GlcNAc(b1-2)Man(a1-6)]Man(b1-4)GlcNAc(b1-4)[Fuc(a1-6)]GlcNAc
Outline: as §1

[3] = molecular target: Fuc(a1-2)[Gal(a1-3)]Gal(b1-4)GlcNAc(b1-3)GalNAc
Outline: as §1

[4] = molecular target: Fuc(a1-2)[Gal(a1-3)]Gal(b1-4)GlcNAc(b1-3)[Fuc(a1-2)[Gal(a1-3)]Gal(b1-4)GlcNAc(b1-6)]GalNAc
Outline: as §1

[5] = molecular target: Fuc(a1-2)[Gal(a1-3)]Gal(b1-4)GlcNAc(b1-6)GalNAc
Outline: as §1

[6] = molecular target: Fuc(a1-2)[Gal(a1-3)]Gal(b1-4)[Fuc(a1-3)]Glc
Outline: as §1

[7] = molecular target: Fuc(a1-2)[Gal(a1-3)]Gal(b1-4)[Fuc(a1-3)]GlcNAc
Outline: as §1

[8] = molecular target: Fuc(a1-2)[Gal(a1-3)]Gal(b1-4)[Fuc(a1-3)]GlcNAc(b1-3)GalNAc
Outline: as §1

[9] = molecular target: Fuc(a1-2)[Gal(a1-4)]Gal(b1-4)GlcNAc
Outline: as §1

[10] = molecular target: Fuc(a1-2)[GalNAc(a1-3)]Gal
Outline: as §1

[11] = molecular target: Fuc(a1-2)[GalNAc(a1-3)]Gal(b1-3)GalNAc(a1-3)[Fuc(a1-2)]Gal(b1-4)GlcNAc
Outline: as §1

[12] = molecular target: Fuc(a1-2)[GalNAc(a1-3)]Gal(b1-3)GalNAc(b1-3)Gal(a1-4)Gal(b1-4)Glc
Outline: as §1

[13] = molecular target: Fuc(a1-2)[GalNAc(a1-3)]Gal(b1-3)GlcNAc
Outline: as §1

[14] = molecular target: Fuc(a1-2)[GalNAc(a1-3)]Gal(b1-3)GlcNAc(b1-2)Man(a1-3)[Fuc(a1-2)[GalNAc(a1-3)]Gal(b1-3)GlcNAc(b1-2)Man(a1-6)]Man(b1-4)GlcNAc(b1-4)GlcNAc
Outline: as §1

[15] = molecular target: Fuc(a1-2)[GalNAc(a1-3)]Gal(b1-3)GlcNAc(b1-2)Man(a1-3)[Fuc(a1-2)[GalNAc(a1-3)]Gal(b1-3)GlcNAc(b1-2)Man(a1-6)]Man(b1-4)GlcNAc(b1-4)[Fuc(a1-6)]GlcNAc
Outline: as §1

[16] = molecular target: Fuc(a1-2)[GalNAc(a1-3)]Gal(b1-3)GlcNAc(b1-3)GalNAc
Outline: as §1

[17] = molecular target: Fuc(a1-2)[GalNAc(a1-3)]Gal(b1-3)GlcNAc(b1-6)GalNAc
Outline: as §1

[18] = molecular target: Fuc(a1-2)[GalNAc(a1-3)]Gal(b1-4)Glc
Outline: as §1

[19] = molecular target: Fuc(a1-2)[GalNAc(a1-3)]Gal(b1-4)GlcNAc
Outline: as §1

[20] = molecular target: Fuc(a1-2)[GalNAc(a1-3)]Gal(b1-4)GlcNAc(b1-2)Man
Outline: as §1

[21] = molecular target: Fuc(a1-2)[GalNAc(a1-3)]Gal(b1-4)GlcNAc(b1-2)Man(a1-3)[Fuc(a1-2)[GalNAc(a1-3)]Gal(b1-4)GlcNAc(b1-2)Man(a1-6)]Man(b1-4)GlcNAc(b1-4)GlcNAc
Outline: as §1

[22] = molecular target: Fuc(a1-2)[GalNAc(a1-3)]Gal(b1-4)GlcNAc(b1-2)Man(a1-3)[Fuc(a1-2)[GalNAc(a1-3)]Gal(b1-4)GlcNAc(b1-2)Man(a1-6)]Man(b1-4)GlcNAc(b1-4)[Fuc(a1-6)]GlcNAc
Outline: as §1

[23] = molecular target: Fuc(a1-2)[GalNAc(a1-3)]Gal(b1-4)GlcNAc(b1-3)Gal(b1-4)GlcNAc
Outline: as §1

[24] = molecular target: Fuc(a1-2)[GalNAc(a1-3)]Gal(b1-4)GlcNAc(b1-3)Gal(b1-4)GlcNAc(b1-3)Gal(b1-4)GlcNAc
Outline: as §1

[25] = molecular target: Fuc(a1-2)[GalNAc(a1-3)]Gal(b1-4)GlcNAc(b1-3)GalNAc
Outline: as §1

[26] = molecular target: Fuc(a1-2)[GalNAc(a1-3)]Gal(b1-4)GlcNAc(b1-3)[Fuc(a1-2)[GalNAc(a1-3)]Gal(b1-4)GlcNAc(b1-6)]GalNAc
Outline: as §1

[27] = molecular target: Fuc(a1-2)[GalNAc(a1-3)]Gal(b1-4)GlcNAc(b1-6)GalNAc
Outline: as §1

[28] = molecular target: Fuc(a1-2)[GalNAc(a1-3)]Gal(b1-4)[Fuc(a1-3)]GlcNAc
Outline: as §1

[29] = molecular target: Fuc(a1-2)[GalNAc(a1-3)]Gal(b1-4)[Fuc(a1-3)]GlcNAc(b1-3)GalNAc
Outline: as §1

[30] = molecular target: Fuc(a1-2)[GalNAc(a1-4)]Gal(b1-4)GlcNAc
Outline: as §1

[31] = molecular target: Fuc(a1-2)[GalNAc(b1-3)]Gal
Outline: as §1

Fuc(a1-3)GlcNAc = molecular target: Fuc(a1-3)GlcNAc
Outline: as §1

[32] = molecular target: Fuc(a1-3)[Gal(b1-4)]Glc6S
Outline: as §1

[33] = molecular target: Fuc(a1-3)[Gal(b1-4)]GlcNAc
Outline: as §1

[34] = molecular target: Fuc(a1-3)[Gal(b1-4)]GlcNAc(b1-2)Man
Outline: as §1

[35] = molecular target: Fuc(a1-3)[Gal(b1-4)]GlcNAc(b1-2)Man(a1-3)[Fuc(a1-3)[Gal(b1-4)]GlcNAc(b1-2)Man(a1-6)]Man(b1-4)GlcNAc(b1-4)GlcNAc
Outline: as §1

[36] = molecular target: Fuc(a1-3)[Gal(b1-4)]GlcNAc(b1-2)Man(a1-3)[Fuc(a1-3)[Gal(b1-4)]GlcNAc(b1-2)Man(a1-6)]Man(b1-4)GlcNAc(b1-4)[Fuc(a1-6)]GlcNAc
Outline: as §1

[37] = molecular target: Fuc(a1-3)[Gal(b1-4)]GlcNAc(b1-3)Gal(b1-3)[Fuc(a1-4)]GlcNAc
Outline: as §1

[38] = molecular target: Fuc(a1-3)[Gal(b1-4)]GlcNAc(b1-3)Gal(b1-4)[Fuc(a1-3)]GlcNAc
Outline: as §1

[39] = molecular target: Fuc(a1-3)[Gal(b1-4)]GlcNAc(b1-3)Gal(b1-4)[Fuc(a1-3)]GlcNAc(b1-3)Gal(b1-4)[Fuc(a1-3)]GlcNAc
Outline: as §1

[40] = molecular target: Fuc(a1-3)[Gal(b1-4)]GlcNAc(b1-3)GalNAc
Outline: as §1

[41] = molecular target: Fuc(a1-3)[Gal(b1-4)]GlcNAc(b1-6)GalNAc
Outline: as §1

[42] = molecular target: Fuc(a1-3)[Gal(b1-4)]GlcNAc(b1-6)[Gal(b1-3)GlcNAc(b1-3)]Gal(b1-4)Glc
Outline: as §1

[43] = molecular target: Fuc(a1-3)[Gal(b1-4)]GlcNAc6S
Outline: as §1

[44] = molecular target: Fuc(a1-3)[Gal3S(b1-4)]Glc
Outline: as §1

B1: BIp1-His (Cryptococcus neoformans) (protein)
chain: MFTKIFVALFAATAVLSAPVESAEKRITHTGRATFYSPSVGIGACGWQNTDEELVVALNAPQYALNADHNCGQSVRITNEQNGNQEIAKVVDLCPGCNDGDLDMSPALFGALNNNDFDQGVFPISWNFLPRDDTSSSN
glycan array binding signal (z-score) [1]: 0.514
glycan array binding signal (z-score) [2]: -0.245
glycan array binding signal (z-score) [3]: -0.805
glycan array binding signal (z-score) [4]: 1.23
glycan array binding signal (z-score) [5]: -1.17
glycan array binding signal (z-score) [6]: -0.62
glycan array binding signal (z-score) [7]: 0.068
glycan array binding signal (z-score) [8]: 0.249
glycan array binding signal (z-score) [9]: 0.629
glycan array binding signal (z-score) [10]: 0.126
glycan array binding signal (z-score) [11]: -0.625
glycan array binding signal (z-score) [12]: 0.795
glycan array binding signal (z-score) [13]: 0.046
glycan array binding signal (z-score) [14]: 0.104
glycan array binding signal (z-score) [15]: -0.283
glycan array binding signal (z-score) [16]: -0.241
glycan array binding signal (z-score) [17]: 0.285
glycan array binding signal (z-score) [18]: 0.382
glycan array binding signal (z-score) [19]: -0.772
glycan array binding signal (z-score) [20]: -1.56
glycan array binding signal (z-score) [21]: 0.464
glycan array binding signal (z-score) [22]: 0.393
glycan array binding signal (z-score) [23]: -0.335
glycan array binding signal (z-score) [24]: 0.652
glycan array binding signal (z-score) [25]: -0.851
glycan array binding signal (z-score) [26]: -0.295
glycan array binding signal (z-score) [27]: -0.512
glycan array binding signal (z-score) [28]: 0.331
glycan array binding signal (z-score) [29]: -0.328
glycan array binding signal (z-score) [30]: 0.897
glycan array binding signal (z-score) [31]: -0.374
glycan array binding signal (z-score) (Fuc(a1-3)GlcNAc): -0.478
glycan array binding signal (z-score) [32]: 0.548
glycan array binding signal (z-score) [33]: 0.066
glycan array binding signal (z-score) [34]: 0.629
glycan array binding signal (z-score) [35]: -0.788
glycan array binding signal (z-score) [36]: 1.39
glycan array binding signal (z-score) [37]: -0.676
glycan array binding signal (z-score) [38]: 0.071
glycan array binding signal (z-score) [39]: -1.22
glycan array binding signal (z-score) [40]: -0.46
glycan array binding signal (z-score) [41]: -0.576
glycan array binding signal (z-score) [42]: -0.013
glycan array binding signal (z-score) [43]: 0.471
glycan array binding signal (z-score) [44]: -0.402

— the supplement of paper PMC8728848
